The text below walks through data of ChEMBL document CHEMBL3351372, “Structure-Based Drug Design of Novel Potent and Selective Tetrahydropyrazolo[1,5-a]pyrazines as ATR Inhibitors” (ACS Med Chem Lett, 2015).

Sequences of proteins named here, by UniProt entry; tags and fusion partners are left off. A change or cut given only in a name is not applied to a line headed by its entry.
UniProt Q12809: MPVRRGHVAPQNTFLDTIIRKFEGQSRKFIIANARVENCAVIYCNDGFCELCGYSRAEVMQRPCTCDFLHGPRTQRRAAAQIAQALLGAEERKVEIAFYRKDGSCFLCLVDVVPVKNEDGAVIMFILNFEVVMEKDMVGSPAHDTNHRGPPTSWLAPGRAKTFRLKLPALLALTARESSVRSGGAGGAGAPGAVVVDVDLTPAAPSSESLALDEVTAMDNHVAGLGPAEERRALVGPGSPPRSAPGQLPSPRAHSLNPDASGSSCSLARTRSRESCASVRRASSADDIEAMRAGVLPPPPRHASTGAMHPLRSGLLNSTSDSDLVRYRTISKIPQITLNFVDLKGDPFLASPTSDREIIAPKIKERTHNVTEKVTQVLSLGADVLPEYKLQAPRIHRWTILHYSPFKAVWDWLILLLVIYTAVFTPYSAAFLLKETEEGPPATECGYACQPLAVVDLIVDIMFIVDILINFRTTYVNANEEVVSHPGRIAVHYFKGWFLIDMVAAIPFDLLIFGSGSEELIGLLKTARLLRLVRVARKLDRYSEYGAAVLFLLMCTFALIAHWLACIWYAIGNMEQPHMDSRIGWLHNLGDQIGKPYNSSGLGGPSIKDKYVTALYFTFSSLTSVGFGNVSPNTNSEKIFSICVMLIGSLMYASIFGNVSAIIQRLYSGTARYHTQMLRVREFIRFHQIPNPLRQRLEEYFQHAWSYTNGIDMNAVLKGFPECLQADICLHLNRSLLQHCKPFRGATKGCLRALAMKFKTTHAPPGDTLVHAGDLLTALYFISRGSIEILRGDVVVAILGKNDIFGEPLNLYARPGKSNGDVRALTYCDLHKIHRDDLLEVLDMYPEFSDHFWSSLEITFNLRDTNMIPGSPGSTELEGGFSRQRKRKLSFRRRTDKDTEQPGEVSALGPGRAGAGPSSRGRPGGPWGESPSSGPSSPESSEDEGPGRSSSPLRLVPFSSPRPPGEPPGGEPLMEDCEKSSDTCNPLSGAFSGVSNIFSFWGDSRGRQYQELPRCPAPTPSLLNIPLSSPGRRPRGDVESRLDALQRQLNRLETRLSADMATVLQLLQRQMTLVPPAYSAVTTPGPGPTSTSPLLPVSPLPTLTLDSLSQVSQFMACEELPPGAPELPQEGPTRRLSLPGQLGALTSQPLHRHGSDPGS

Data set [1] in a line: Solubility of the compound in PBS buffer at pH 7 by miniaturized shake flask equilibrium solubility assay.
A short description of data set [2]: Octanol-water distribution coefficient, log D of the compound with pH 7.4 PBS buffer.
In data set [3] the target is Voltage-gated inwardly rectifying potassium channel KCNH2 (Homo sapiens, UniProt Q12809). The data set can be described thus: Inhibition of human ERG by automated whole cell electrophysiology.

One may read the solubility (thermodynamic) as the concentration in solution at equilibrium with solid. One may read the logD as lipophilicity at a set pH, counting ionised and neutral species. Read a low logD as a more hydrophilic compound. The term IC50 denotes the concentration needed to halve the response being measured.

≈ marks a conversion by molar mass, not a printed value.

For `C[C@@H]1Cn2ncc(-c3ccc(S(C)(=O)=O)cc3)c2CN1c1ccnc2[nH]ccc12`, in data set [1], the thermodynamic solubility is 122 µM (≈ 49.7 µg/mL). The log distribution coefficient (logD) in data set [2] is 2.3. Moreover, the IC50 in data set [3] came out at 1500 nM.
